Test results as given in publication PMC10542451.
These are yes or no findings as the source states them, for the method shown. In cells and extracts the contact can be indirect. A result given as binding can be weak or reduced; the word gives no strength.

Biological target: PADI3β (mouse peptidylarginine deiminase 3, alternative isoform) (mouse) (UniProt E9QAM4)
Test: co-IP; triple transfection of PADI3α-HA, PADI3α-Flag and PADI3β-His into HEK293 cells, harvested 48 h after transfection, RIPA lysate; precipitated with anti-HA-tag magnetic beads or Dynabeads His-tag Isolation and pulldown; blotted for Flag

B1: PADI3α (mouse peptidylarginine deiminase 3, canonical isoform) (enzyme, UniProt Q9Z184 1-664)
chain: MSLQRIVRVSLEHPTSAVCVAGVETIVDIYGAVPEGTDMFEVYGTPGVDIYVSPSMERSRERADTRRWCFNKGLEIIVIMNSPSNDLNDSHVQIAYHSSREHLPLAYAVLYLTCVDITLDCDMNCADRQDRSFVDKRQWVWGPDGYGAILLVNCDRDNVDSNAQDNCDQYVRCLQDLEDMSVMVLRTQGPEALFEDHRLILHTSSCDAERARVFHVCGPEDSCESYKCVLGPDRMSYEVPRLKGYEERFFVEGLSFPDAGFPGLISFHVTLLDDSNEDFSETPIFTDTAVFRVAPWIMTPSTLPPLEVYVCRVRNNTCFVEAVEELARKAGCKLTICPQAENRNDRWIQDEMELGYVQAPHKTLPVVFDSPRNGELQGFPYKRILGLDFGYVTREPKDSSVSGLDSFGNLEVSPPVVANGKEYPLGRILIGGNLPGSRGRRVTQVVRNFLHAQKVQPLVELFVDWLAVGHVDEFLSFVPAPDGKGFRLLLASPGACFRLFQEKQKWGHGRSLLFEGVIGDRRVQTVSINQILNNQSLINFNKFAQSCIDWNREVLKRELGLAEGDIIDIPQLFKTEKRKAVAFFPDLVNMLVLGKHLGIPKPFGPIINGRCCLEEKVRSLLEPLGLHCTFIDDFTPYHMLHGEVHCGTNVRREPFAFKWWHMVP
  binding: binds
